{
  "source": "patent US9645147B2",
  "about": "“Recombinant polypeptide construct comprising Plasmodium falciparum circumsporozoite protein HLA class I restricted T-cell epitopes” (priority 2013, dated 2017)",
  "note": "Some entries share one result that the patent states for a list of compounds. Some ranges recur; such a range may be that of the whole group of compounds. Peptide text beside a SMILES is read from it.",
  "data": [
    {"tested_on": "PBMC depleted of T-cell subsets", "test": "ELISpot IFN-γ after T-cell subset depletion (CD4+ or CD8+ Dynabeads, mock control)", "assay_type": "cell-based, human", "conditions": "text summary over the four volunteers of Table 6", "text": "For characterization of ELISpot IFN-γ-producing cells by T-cell subset depletions PBMC were depleted of T-cell subsets using anti-human CD4+ or anti-CD8+ coated Dynabeads M-450 (Dynal, Great Neck, N.Y.) following the manufacturer's instructions. Mock depletion was done with Dynabeads coated with sheep anti-mouse IgG. Flow cytometry confirmed that T-cell subset depletions were >99% in all experiments. Data are presented as the spot-forming cells/million (sfc/m) and percent decrease or increase in activity after depletion.\nTo further evaluate the predicted epitopes, ELISpot depletion assays were performed using PBMC from four volunteers stimulated with six predicted and tested epitopes. CD8+ T cell depletion reduced responses to Cp1 and Cp9 by 82%100%.", "values": [
      {"smiles": "CC(C)C[C@H](NC(=O)[C@H](C)NC(=O)[C@H](CCC(=O)O)NC(=O)[C@@H](NC(=O)[C@H](Cc1ccccc1)NC(=O)[C@H](CC(C)C)NC(=O)[C@@H](N)Cc1ccccc1)C(C)C)C(=O)N[C@@H](Cc1ccccc1)C(=O)N[C@@H](CCC(N)=O)C(=O)O", "note": "[Epitope E1a] (H-FLFVEALFQ-OH; N-terminus and C-terminus assumed)", "percent reduction of ELISpot response after CD8+ T cell depletion": "73%-97%"},
      {"smiles": "CC(C)C[C@H](NC(=O)[C@H](C)NC(=O)[C@H](CCC(=O)O)NC(=O)[C@@H](NC(=O)[C@H](Cc1ccccc1)NC(=O)[C@H](CC(C)C)NC(=O)[C@H](Cc1ccccc1)NC(=O)[C@@H](N)CO)C(C)C)C(=O)N[C@@H](Cc1ccccc1)C(=O)O", "note": "[Epitope E20] (H-SFLFVEALF-OH; N-terminus and C-terminus assumed)", "percent reduction of ELISpot response after CD8+ T cell depletion": "73%-97%"},
      {"smiles": "CC[C@H](C)[C@H](NC(=O)[C@@H](N)CC(C)C)C(=O)N[C@@H](CCSC)C(=O)N[C@H](C(=O)N[C@@H](CC(C)C)C(=O)N[C@@H](CO)C(=O)N[C@@H](Cc1ccccc1)C(=O)N[C@@H](CC(C)C)C(=O)N[C@@H](Cc1ccccc1)C(=O)O)C(C)C", "note": "[Epitope E17a] (H-LIMVLSFLF-OH; N-terminus and C-terminus assumed)", "percent reduction of ELISpot response after CD8+ T cell depletion": "73%-97%"}
    ]}
  ]
}
